In one data set the test system is A549 cells. Kind of data set: Uptake and subcellular localization by Apoptome microscopy. The format is cell-based, human. The procedure: The emission of 9 and 10 was measured in A549 cells using an Apoptome microscope. The relative rates of uptake of each of the complexes were analyzed as a function of time, and both 9 and 10 were visible inside cells as early as 2 hours after compound addition, consistent with the flow data and the ICP-OES results. Images were taken at 2, 8, 18 and 24 hours, and intracellular levels of both complexes appeared to plateau around 8 hours.
Differences in the intracellular localization of 9 and 10 were evaluated by determining colocalization of luminescence of the compound and fluorescent markers of organelles in A549 cells. Overlap in signals between the compounds, cellular nucleus, mitochondria and lysosome was measured over a 24 hour period.

The nature of data set [1]: Singlet oxygen quantum yield. The format is physicochemical.

`O=S(=O)([O-])c1ccc(-c2ccnc3c2ccc2c(-c4ccc(S(=O)(=O)[O-])cc4)ccnc23)cc1.O=S(=O)([O-])c1ccc(-c2ccnc3c2ccc2c(-c4ccc(S(=O)(=O)[O-])cc4)ccnc23)cc1.O=S(=O)([O-])c1ccc(-c2ccnc3c2ccc2c(-c4ccc(S(=O)(=O)[O-])cc4)ccnc23)cc1.[Ru+2]` [Compound 10, Ru(bathophenanthorlinedisulfonate)3]: the subcellular localization result with A549 cells (absence of light) was “remained primarily in the cytosol”; in the data set on A549 cells (after irradiation), “primarily observed in lysosomes”.
For Ru(bathophenanthroline)3 [Compound 9], in data set [1], the “ΦΔ (quantum yield for 1O2 production)” value is 0.42. The subcellular localization entry with A549 cells (absence of light) is “localized to lysosomes and the mitochondria”; with A549 cells (after irradiation), “induced nuclear localization of the mitochondrial and lysosome markers”.

Source of the values: patent US9290528B1, “Light-activated compounds” (University of Kentucky Research Foundation, priority 2013, dated 2016).
